# Source: the supplement of paper PMC10735217
# Structures can show the parent of a compound that is named as a salt. This is one part of the list. Single values are uncertain here, since repeats match poorly.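 Human kidney-derived cells stably carry a construct in which eight TEAD-binding elements drive luciferase, measured by luminescence in a drug-repurposing library screen. A hit is any compound whose signal exceeds the plate mean by more than five robust Z scores.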
# Test system: HEK293A TEAD-LUC reporter
# Assay: TEAD-luciferase reporter activity (YAP activation), robust Z score vs plate; higher = stronger YAP/TEAD activation
# Settings: 24 h
SMILES,TEAD-luciferase reporter activity (compound concentration: 200 nM),TEAD-luciferase reporter activity (compound concentration: 2 uM),TEAD-luciferase reporter activity (compound concentration: 10 uM)
Cc1cccc2scc(Cn3c(SCCCC(=O)O)nc4ccccc43)c12,inactive: -0.49,inactive: -0.431,active: 5.6
C[C@@H](O)[C@H](NC(=O)[C@H](Cc1ccccc1)NC(=O)[C@@H](NC(=O)[C@H](CCCCN)NC(=O)[C@@H](Cc1c[nH]c2ccccc12)NC(=O)[C@H](Cc1ccccc1)NC(=O)[C@H](Cc1ccccc1)NC(=O)[C@H](N)Cc1ccccc1)[C@@H](C)O)C(N)=O,inactive: 1.11,inactive: -0.552,inactive: -1.74
"CCCCNc1ccc(C(=O)OCCN(C)C)cc1 [tetracaine, MicroParticle]",inactive: 0.703,inactive: -0.89,inactive: 2.9
CCCOc1nc(N)c2ncn(C3CCCCC3)c2n1,inactive: 1.11,inactive: -1.16,inactive: -1.06
Oc1c(Cl)cc(Cl)c(Cl)c1Cc1c(O)c(Cl)cc(Cl)c1Cl,inactive: -0.0787,inactive: -1.67,inactive: -0.605
Cc1c(-c2ccc(O)cc2)n(CCCCCCN2CCCC2)c2ccc(O)cc12,inactive: -0.886,inactive: -1.16,inactive: 1.69
CC(=O)/C(=N/O)c1cc[n+](C)cc1,inactive: -1.06,inactive: 0.546,inactive: 1.08
Cc1ccc(C(C)C)cc1O [Carvacrol],inactive: -2.16,inactive: 0.12,inactive: -0.327
CCNC/C=C\CNCCCCNCCCCNC/C=C\CNCC,inactive: 0.193,,inactive: -0.178
O=C1NCCCCC1N(Cc1ccc(Br)cc1)S(=O)(=O)c1ccc(Cl)cc1 (stereo not drawn),inactive: 1.38,inactive: 2.17,inactive: 1.01
C[C@@H](c1ccc(-c2ccccc2)c(F)c1)c1cc(/N=C(\N)N2CCOCC2)on1 [Rimacalib hydrochloride],inactive: -1.08,inactive: 0.393,inactive: 1.03
Cn1cnc2nc(O)nc(O)c21,inactive: -2.21,inactive: -1.96,inactive: -1.58
CC(C)=CCOc1cc(NC(=O)c2ccsc2C)ccc1Cl,inactive: -1.82,inactive: -0.395,inactive: -0.846
COc1cc(N)c(Cl)cc1C(=O)NC1CCN(CCCOc2ccc(F)cc2)CC1OC (stereo not drawn) [cisapride],inactive: -0.166,inactive: -0.702,inactive: 0.311
COc1ccncc1CN1CCC(N(CCCCCCCN2CC[C@@H](C(C(N)=O)(c3ccccc3)c3ccccc3)C2)C(C)C)CC1,inactive: -0.527,inactive: 1.59,inactive: -0.647
"COc1cc2nccc(Oc3ccc(NC(=O)Nc4cc(C)on4)c(Cl)c3)c2cc1OC [tivozanib (ophthalmic), Ophthotech]",inactive: 2.44,,inactive: 0.958
COc1cc2nccc(Oc3ccc(NC(=O)Nc4cc(C)on4)c(Cl)c3)c2cc1OC [tivozanib (ophthalmic)],,inactive: -2.1,
O=c1c2nc[nH]c2c2cccnc2n1-c1ccccc1,inactive: 1.31,inactive: -0.254,inactive: 0.974
CCCCS(=O)(=O)N[C@@H](Cc1ccc(OCCCCC2CCNCC2)cc1)C(=O)O [tirofiban hydrochloride],inactive: -1.8,inactive: 1.16,inactive: 0.687
Nc1c(NCCCOc2cccc(CN3CCCCC3)c2)c(=O)c1=O,inactive: -1.31,inactive: 0.589,inactive: -1.44
CN1C(=O)N(c2cc(Cl)cc(Cl)c2)C(=O)[C@@]1(C)Cc1ccc(Br)cc1,inactive: -0.709,inactive: 2.16,inactive: 0.308
CC(C)C[C@H](NC(=O)CNC(=O)c1cc(Cl)ccc1Cl)B1OC(=O)CC(CC(=O)O)(C(=O)O)O1 (stereo partly drawn) [Ixazomib citrate],,inactive: -0.886,
CC(C)C[C@H](NC(=O)CNC(=O)c1cc(Cl)ccc1Cl)B1OC(=O)CC(CC(=O)O)(C(=O)O)O1 (stereo partly drawn),active: 6.07,,inactive: -0.118
CC(C)CCN(C)Cc1ccc(-c2ccccc2)cc1,inactive: 1.71,,inactive: 0.767
O=C(c1ccc(F)c(F)c1Nc1ccc(I)cc1F)N1CC(O)([C@H]2CCCCN2)C1 [Cobimetinib],inactive: 0.146,inactive: -0.811,inactive: 0.74
Cc1c(CN2CCOC(c3ccccc3)C2C)c(=O)n(-c2ccccc2)n1C (stereo not drawn),inactive: -1.21,inactive: 0.124,inactive: 0.747
CCOC(=O)c1c[nH]cn1,inactive: 0.549,inactive: -0.94,inactive: -0.133

# Reformatted: entries from further up
SMILES	TEAD-luciferase reporter activity (compound concentration: 200 nM)	TEAD-luciferase reporter activity (compound concentration: 2 uM)	TEAD-luciferase reporter activity (compound concentration: 10 uM)
Cc1c(-c2ccc(O)cc2)n(CCCCCCN2CCCC2)c2ccc(O)cc12	inactive: -0.886	inactive: -1.16	inactive: 1.69
CC(=O)/C(=N/O)c1cc[n+](C)cc1	inactive: -1.06	inactive: 0.546	inactive: 1.08
